From article doi:10.1101/240606
These are yes or no findings as the source states them, for the method shown. For part of these data: In cells and extracts the contact can be indirect. Some results given as binding are weak or reduced against the parent protein; the word gives no strength. For part of these data: Tags and fused reporters may be left off the sequences shown.

Chains of the proteins cited; added tags and fusions are not shown. Lines headed by an entry give the natural chain unless they say otherwise; changes in a name come on top.
UniProt Q8N6T7: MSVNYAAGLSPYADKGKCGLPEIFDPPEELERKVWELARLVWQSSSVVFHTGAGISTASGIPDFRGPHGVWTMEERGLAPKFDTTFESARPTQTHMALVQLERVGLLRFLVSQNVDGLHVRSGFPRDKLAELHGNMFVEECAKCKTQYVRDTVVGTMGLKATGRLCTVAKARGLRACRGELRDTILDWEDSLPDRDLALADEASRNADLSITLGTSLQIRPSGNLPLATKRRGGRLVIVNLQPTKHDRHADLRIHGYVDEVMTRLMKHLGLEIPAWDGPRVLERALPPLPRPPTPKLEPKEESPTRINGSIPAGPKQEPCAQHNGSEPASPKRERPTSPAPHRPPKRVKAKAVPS
UniProt Q00987: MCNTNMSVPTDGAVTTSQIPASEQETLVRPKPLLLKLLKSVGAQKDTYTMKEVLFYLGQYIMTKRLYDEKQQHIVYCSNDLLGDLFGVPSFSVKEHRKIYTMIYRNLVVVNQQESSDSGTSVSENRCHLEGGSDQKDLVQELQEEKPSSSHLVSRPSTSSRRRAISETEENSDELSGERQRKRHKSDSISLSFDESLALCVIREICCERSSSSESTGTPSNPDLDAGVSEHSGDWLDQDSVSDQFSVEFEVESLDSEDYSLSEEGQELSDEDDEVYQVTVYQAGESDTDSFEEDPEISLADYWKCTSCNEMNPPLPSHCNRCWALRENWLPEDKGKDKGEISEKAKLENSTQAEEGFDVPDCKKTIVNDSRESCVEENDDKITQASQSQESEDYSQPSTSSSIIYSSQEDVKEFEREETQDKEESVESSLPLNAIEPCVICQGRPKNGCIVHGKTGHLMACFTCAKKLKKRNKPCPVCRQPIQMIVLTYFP

How the values were obtained:
[1] = target: T1, GST-ATM-4 (residues 770-1102) (UniProt Q13315); assay: pull-down
T1 sequence: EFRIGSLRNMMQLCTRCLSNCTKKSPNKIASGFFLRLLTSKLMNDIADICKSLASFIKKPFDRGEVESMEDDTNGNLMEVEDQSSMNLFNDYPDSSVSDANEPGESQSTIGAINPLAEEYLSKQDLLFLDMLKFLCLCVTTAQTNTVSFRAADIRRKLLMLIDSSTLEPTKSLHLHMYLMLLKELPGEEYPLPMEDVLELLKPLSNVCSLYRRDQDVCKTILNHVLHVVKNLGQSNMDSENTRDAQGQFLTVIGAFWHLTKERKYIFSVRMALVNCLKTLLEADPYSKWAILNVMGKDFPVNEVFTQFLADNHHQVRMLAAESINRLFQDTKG

[2] = target: Flag-SIRT6 S112A (human) (UniProt Q8N6T7); assay: co-IP
[3] = target: Human Flag-SIRT6 (human) (UniProt Q8N6T7); assay: co-IP

Substance	binding [1]	binding [2]	binding [3]
6 x His-tagged SIRT6 (from UniProt Q8N6T7 1-355)	binds	–	–
human MDM2 (from UniProt Q00987 1-491)	–	binds	binds
